## Drug screen on melanoma cell lines: cell count

Data from the primary screen of doi:10.1371/journal.pone.0140310, rounded.

Compounds and concentrations:
CHIR-265: Cn1c(Nc2ccc(C(F)(F)F)cc2)nc2cc(Oc3ccnc(-c4ncc(C(F)(F)F)[nH]4)c3)ccc21 at 0.08 µM
FK866: O=C(/C=C/c1cccnc1)NCCCCC1CCN(C(=O)c2ccccc2)CC1 at 0.01 µM
GSK0660: COC(=O)c1sccc1S(=O)(=O)Nc1ccc(Nc2ccccc2)cc1OC at 1 µM
GW9662: O=C(Nc1ccccc1)c1cc([N+](=O)[O-])ccc1Cl at 2 µM
stibogluconate: O=C(O)[C@@H]1[O][Sb](=[O])([O][Sb]2(=[O])[O][C@H]([C@H](O)CO)[C@H](O)[C@H](C(=O)O)[O]2)[O][C@H]([C@H](O)CO)[C@@H]1O (stereo partly specified) at 2 µM
T0901317: O=S(=O)(c1ccccc1)N(CC(F)(F)F)c1ccc(C(O)(C(F)(F)F)C(F)(F)F)cc1 at 1.4 µM
TCS401: O=C(O)C(=O)Nc1sc2c(c1C(=O)O)CCNC2 at 1.67 µM
U73122: COc1ccc2c(c1)CCC1C2CCC2(C)C(NCCCCCCN3C(=O)C=CC3=O)CCC12 (stereo unspecified) at 0.4 µM
selumetinib: Cn1cnc2c(F)c(Nc3ccc(Br)cc3Cl)c(C(=O)NOCCO)cc21 at 0.015 µM
vorinostat: O=C(CCCCCCC(=O)Nc1ccccc1)NO at 0.08 µM
NVP-TAE684: COc1cc(N2CCC(N3CCN(C)CC3)CC2)ccc1Nc1ncc(Cl)c(Nc2ccccc2S(=O)(=O)C(C)C)n1 at 0.08 µM
lenalidomide: Nc1cccc2c1CN(C1CCC(=O)NC1=O)C2=O (stereo unspecified) at 1 µM
dasatinib: Cc1nc(Nc2ncc(C(=O)Nc3c(C)cccc3Cl)s2)cc(N2CCN(CCO)CC2)n1 at 0.004 µM
GW441756: Cn1cc(/C=C2\C(=O)Nc3cccnc32)c2ccccc21 at 0.4 µM
YM155: COCC[n+]1c2c(n(Cc3cnccn3)c1C)C(=O)c1ccccc1C2=O at 0.0004 µM
FH535: Cc1cc([N+](=O)[O-])ccc1NS(=O)(=O)c1cc(Cl)ccc1Cl at 1 µM

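Human melanoma cell lines in 1,536-well plates were treated with two drugs together for 72 h, then fixed, stained and imaged. Values are the number of DAPI-stained nuclei as a percentage of the DMSO control: 100 is no effect, lower means fewer cells. Every drug was used at one fixed concentration, the lower of two screened (a fifth of the higher). The file gives one value for each pair and line, without errors, so small differences may be noise.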
This is part of the screen, not chosen by result.
An entry leaves out what has no value listed here.
A dash means that no value is listed here.

{"combination": "CHIR-265 and FK866", "COLO 800": 29.3}
{"combination": "TCS401 and selumetinib", "COLO 800": 79.0, "A2058": 110}
{"combination": "T0901317 and dasatinib", "COLO 800": 86.2}
{"combination": "CHIR-265 and GW441756", "COLO 800": 137}
{"combination": "vorinostat and GSK0660", "COLO 800": 77.6}
{"combination": "dasatinib and stibogluconate", "COLO 800": 97.2}
{"combination": "stibogluconate and FK866", "COLO 800": 22.5}
{"combination": "CHIR-265 and U73122", "COLO 800": 81.6}
{"combination": "TCS401 and lenalidomide", "COLO 800": 107}
{"combination": "vorinostat and NVP-TAE684", "COLO 800": 112}
{"combination": "GW9662 and CHIR-265", "COLO 800": 109}
{"combination": "YM155 and NVP-TAE684", "COLO 800": 110}
{"combination": "selumetinib and GSK0660", "COLO 800": 66.8, "A2058": 102}
{"combination": "GW9662 and lenalidomide", "COLO 800": 92.5}
{"combination": "lenalidomide and GW441756", "COLO 800": 104}
{"combination": "NVP-TAE684 and lenalidomide", "COLO 800": 91.0}
{"combination": "lenalidomide and T0901317", "COLO 800": 65.5}
{"combination": "GW9662 and YM155", "COLO 800": 116}
{"combination": "YM155 and GW441756", "COLO 800": 72.8}
{"combination": "U73122 and YM155", "COLO 800": 88.0}
{"combination": "vorinostat and U73122", "COLO 800": 101}
{"combination": "U73122 and selumetinib", "COLO 800": 102, "A2058": 90.1}
{"combination": "FK866 and lenalidomide", "COLO 800": 11.3}
{"combination": "FH535 and YM155", "COLO 800": 77.8}
{"combination": "FH535 and dasatinib", "COLO 800": 89.9}
{"combination": "YM155 and GSK0660", "COLO 800": 64.5}
{"combination": "T0901317 and vorinostat", "COLO 800": 96.8}
{"combination": "FK866 and selumetinib", "COLO 800": 23.3}
{"combination": "GSK0660 and dasatinib", "COLO 800": 67.2}
{"combination": "GW441756 and selumetinib", "COLO 800": 80.0, "A2058": 108}
{"combination": "FH535 and FK866", "COLO 800": 25.3}

2 of the entries, repeated:

Combination,COLO 800,A2058
FH535 and FK866,25.3,-
U73122 and YM155,88.0,-